The values that follow come from patent US5041238A, “o,o'-Bridged oligophenylene laser dyes, dyestuff lasers and methods of lasing therewith” (Exciton Chemical Company, priority 1988, dated 1991).

This data set can be described thus: Lasing wavelength maximum and output energy, pumped at 308 nm by xenon chloride excimer laser. The settings on record: 308 nm XeCl excimer laser; for Output Energy: Table II.

As to `c1ccc2c(c1)Cc1cc(-c3ccc4c(c3)Cc3ccccc3-4)ccc1-2` [2,2'-bifluorene], where the note is “dioxane/methanol”, the “Output Energy” value is recorded as 3.1 units.
For `CCCC1(CCC)c2ccccc2-c2ccc(-c3ccc4c(c3)C(CCC)(CCC)c3ccccc3-4)cc21` [9,9,9',9'-tetrapropyl-2,2'-bifluorene], the “Relative Output Energy” value (Table III, dioxane) stood at 7.6 units.
Take `CC(C)(C)c1ccc(-c2nnc(-c3ccc(-c4ccccc4)cc3)o2)cc1` [Butyl-PBD, reference compound]: the “Output Energy” value (ethanol/toluene) came out at 1.9 units.
As for `c1ccc(-c2ccc(-c3ccccc3)cc2)cc1` [p-terphenyl, reference compound], the “Output Energy” value (dioxane) is recorded as 2.6 units.
